Measurements from paper PMC12848575.
These are yes or no findings as the source states them, for the method shown. Binding seen in cells or lysates may run through a third protein. Some binding calls cover weakened binding; strength is not graded here.

Chains of the proteins cited; added tags and fusions are not shown.
UniProt Q9Z0Z7: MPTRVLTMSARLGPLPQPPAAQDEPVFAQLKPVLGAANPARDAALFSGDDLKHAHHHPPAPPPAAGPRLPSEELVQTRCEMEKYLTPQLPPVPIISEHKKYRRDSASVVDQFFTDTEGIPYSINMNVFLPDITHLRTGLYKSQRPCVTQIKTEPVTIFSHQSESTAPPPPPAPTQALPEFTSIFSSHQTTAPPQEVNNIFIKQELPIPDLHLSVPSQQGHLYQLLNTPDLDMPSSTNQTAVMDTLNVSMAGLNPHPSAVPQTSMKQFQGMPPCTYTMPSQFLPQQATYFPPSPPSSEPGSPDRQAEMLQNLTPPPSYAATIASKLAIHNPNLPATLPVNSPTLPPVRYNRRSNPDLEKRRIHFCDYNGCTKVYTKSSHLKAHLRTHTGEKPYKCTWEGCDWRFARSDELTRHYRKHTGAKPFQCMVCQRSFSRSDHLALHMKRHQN
UniProt P45448: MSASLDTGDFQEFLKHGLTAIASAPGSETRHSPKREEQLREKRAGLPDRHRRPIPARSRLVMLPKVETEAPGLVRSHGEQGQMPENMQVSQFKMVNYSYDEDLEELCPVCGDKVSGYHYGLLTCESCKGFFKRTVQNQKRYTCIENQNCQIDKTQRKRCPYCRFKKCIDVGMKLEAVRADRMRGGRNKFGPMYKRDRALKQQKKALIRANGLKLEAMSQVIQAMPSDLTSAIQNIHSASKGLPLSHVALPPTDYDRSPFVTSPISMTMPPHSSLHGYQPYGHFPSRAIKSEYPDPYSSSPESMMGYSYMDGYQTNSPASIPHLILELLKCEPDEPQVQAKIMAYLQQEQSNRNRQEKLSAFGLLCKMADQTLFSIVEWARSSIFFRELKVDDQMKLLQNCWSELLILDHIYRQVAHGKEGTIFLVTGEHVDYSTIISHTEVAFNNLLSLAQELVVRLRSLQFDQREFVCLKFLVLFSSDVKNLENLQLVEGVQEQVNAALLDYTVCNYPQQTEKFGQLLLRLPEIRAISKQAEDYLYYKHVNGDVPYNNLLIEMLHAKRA

Target: KLF5 (mouse (endogenous in 8-cell embryos)) (UniProt Q9Z0Z7)
Experiment: proximity ligation; Duolink PLA on fixed (4% formaldehyde), permeabilised mouse 8-cell embryos; primary antibodies against NR5A2 and KLF5, rabbit PLUS and mouse MINUS probes; PLA spots within nuclei counted, density compared with no-primary and single-antibody controls

binding: binds
Substance: NR5A2 (from UniProt P45448 1-560)
